# Results deposited as PubChem BioAssay AID1259254 (NCATS, 2017).
# Screen: 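Genome-wide screen for genes that prevent DNA re-replication in cancer cells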 (primary screen)
# System: human HCT116 colorectal cancer cells
# Reagent: single siRNA against human genes
# Time to read-out: 3 days
# Measurement: 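Imaged Hoechst DNA stain sorts each cell into a cycle phase by DNA amount; per plate, G2 fraction set to 0% for non-targeting and 100% for GMNN siRNA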
# Scale: G2 robust z-score and G2 cells, % of GMNN control: higher = more G2 cells, more excess DNA replication; raw share of cells in G2: higher = larger share of cells with G2 DNA content
# Call rule: 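Active siRNAs have a G2 robust z of 5 or more median absolute deviations over the median, which in these data means about 38% or higher of GMNN control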
# The whole screen tested about 59,000 reagents; below is a part drawn at random. In the full data, about 1,550 (2.6%) got an active call. 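G2 share is only a proxy for re-replication; each gene was hit by three separate siRNAs, and active genes were retested.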 Raw values are not corrected between plates. Reagents against one gene are numbered here. Not given: the amount of reagent.
gene knocked down,reagent,G2 robust z-score,"G2 cells, % of GMNN control",raw share of cells in G2 (%),call
ACKR5,1,2.21,18.5,12.5,inactive
ACKR5,2,0.607,7.24,7.05,inactive
ACKR5,3,0.108,3.73,4.41,inactive
SNX14,1,0.166,4.13,7.36,inactive
SNX14,2,-0.187,1.65,4.93,inactive
SNX14,3,2.17,18.2,10.8,inactive
MSMB,1,-0.273,1.05,5.42,inactive
MSMB,2,-0.678,-1.81,3.51,inactive
MSMB,3,-0.155,1.88,4.03,inactive
DIRAS3,1,0.0571,3.37,6.07,inactive
DIRAS3,2,0.56,6.91,7.18,inactive
DIRAS3,3,-0.0439,2.66,6.2,inactive
ALDH1A2,1,1.5,13.5,10,inactive
ALDH1A2,2,-0.624,-1.42,3.89,inactive
ALDH1A2,3,-0.458,-0.254,4.62,inactive
STX11,1,-0.0679,2.49,4.36,inactive
STX11,2,-0.0829,2.38,7.05,inactive
STX11,3,-0.87,-3.16,2.02,inactive
PDGFRL,1,-0.474,-0.368,5.49,inactive
PDGFRL,2,-1.07,-4.53,3.88,inactive
PDGFRL,3,-0.905,-3.4,2.83,inactive
BRAF,1,-0.778,-2.51,4.78,inactive
BRAF,2,0.324,5.25,7.18,inactive
BRAF,3,-0.728,-2.15,3.27,inactive
TIMD4,1,-0.458,-0.256,3.98,inactive
TIMD4,2,-0.108,2.21,3.69,inactive
TIMD4,3,0.454,6.16,4.88,inactive
LINC02447,1,3.42,27,14.3,inactive
LINC02447,2,3.6,28.3,15.1,inactive
LINC02447,3,1.16,11.2,7.69,inactive
